# Source: paper PMC7819943, “Rice protein-binding microarrays: a tool to detect cis-acting elements near promoter regions in rice”
# The chains behind the UniProt entries cited, without tags or fusion partners.
# UniProt Q0JBA9, entry or part of it: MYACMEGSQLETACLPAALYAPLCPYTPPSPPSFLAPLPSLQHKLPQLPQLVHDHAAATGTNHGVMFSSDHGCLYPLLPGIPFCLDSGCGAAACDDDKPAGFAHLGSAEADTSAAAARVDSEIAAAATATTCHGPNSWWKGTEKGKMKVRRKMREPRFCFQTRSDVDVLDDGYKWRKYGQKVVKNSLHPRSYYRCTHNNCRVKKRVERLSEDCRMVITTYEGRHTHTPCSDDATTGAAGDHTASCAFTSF
# This is one part of the list.
# Molecular target: OsWRKY34 (Oryza sativa, UniProt Q0JBA9 1-250)
# Test: protein-binding microarray (RPBM); PBS, 2% BSA, 51.3 ng/ul salmon testes DNA, 50 uM zinc acetate, 200 nM TF, 25 C, 1 h; high values mean tight binding
# Conditions: protein: recombinant; tags: N-terminal polyhistidine and DsRed monomer fusion (pET32a); label: CyDye5-dUTP incorporated in the synthesized complementary strand; 3' TTTTT single-stranded linker to array surface; dsDNA, one strand shown
# Method in brief: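 Transcription factors were each fused at the N-terminus to a polyhistidine tag plus DsRed and expressed in E. coli BL21-CodonPlus before Ni–NTA purification. Binding to a double-stranded custom Agilent array was carried out with 200 nM protein at 25 °C for 1 h in PBS, 2% BSA, salmon testes DNA and 50 µM zinc acetate. The binding signal is per-feature fluorescence intensity, in arbitrary units, on an Axon 4000B scanner.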
row,Sequence,binding signal
1,ACATTTACTATTTGTCTTATTTAAATTTTTTTATGATTAACGGAGTCACCTAGTGCAG,8760 fluorescence intensity (a.u.)
2,GCCTCCGCCGCCGCCGCCGCCGCCGCGTCGTCTCCGACCGCGGAGTCACCTAGTGCAG,9710 fluorescence intensity (a.u.)
3,CTGCTGCATCTTGTTGGGAACTTTTCCTCTCCTCTCCTCTCGGAGTCACCTAGTGCAG,8940 fluorescence intensity (a.u.)
4,GATTTGCTTCTTCTTGGTCTATAAAATGCTCGCATTGTCTCGGAGTCACCTAGTGCAG,8800 fluorescence intensity (a.u.)
5,ATTGTCTTTCCTGTACAACATGTCACCAGCATAAATGGTCCGGAGTCACCTAGTGCAG,9020 fluorescence intensity (a.u.)
6,GCTCTACTAGTACTACTATTGATCGAGTCAATGTAACGATCGGAGTCACCTAGTGCAG,8390 fluorescence intensity (a.u.)
7,CACATATTAATGGTTTTCTTGTTTTGCATGTCCACTTTTACGGAGTCACCTAGTGCAG,11100 fluorescence intensity (a.u.)
8,CAACTTTGGCTTCACTATCAGCTGCACGCTCCCGCCCTTCCGGAGTCACCTAGTGCAG,9220 fluorescence intensity (a.u.)
9,TATATATCAAATCCTGACCATGTGCGTATGTTACCCTCAACGGAGTCACCTAGTGCAG,8140 fluorescence intensity (a.u.)
10,AAAGAGATTTATTATACGTCTGCTCCTGTATTTCCAAAAGCGGAGTCACCTAGTGCAG,8100 fluorescence intensity (a.u.)
11,AACATTGATGAGAATTGAAATCATTTCGTTGCTCTAATCTCGGAGTCACCTAGTGCAG,8340 fluorescence intensity (a.u.)
12,CATGCGTACTCATCTTCATCACTACCGCTTGAGCTCAAGTCGGAGTCACCTAGTGCAG,8690 fluorescence intensity (a.u.)
13,TTGATGTTTCTTTTCCTGGCGTTATCGATGTAAACATGGCCGGAGTCACCTAGTGCAG,9190 fluorescence intensity (a.u.)
14,CTGGGTCATATGTATCATCTGTGTTTGTTTCCATATGAATCGGAGTCACCTAGTGCAG,8950 fluorescence intensity (a.u.)
15,GTCGAGCTTGTCGCCTCGCCACGGTCTGCTCCCGGGCTCGCGGAGTCACCTAGTGCAG,8460 fluorescence intensity (a.u.)
16,CCTGTTTTCTTCACACGTTATTTTGTGTTATTCCCTGTTTCGGAGTCACCTAGTGCAG,13200 fluorescence intensity (a.u.)
17,CGCGCCATTGCCATCGTTTCACCCTACATATAAACCGCATCGGAGTCACCTAGTGCAG,9050 fluorescence intensity (a.u.)
18,TTTGTGGGTGTTTGGTGTGCAGGTGTACATGATTGTTTGCCGGAGTCACCTAGTGCAG,8910 fluorescence intensity (a.u.)
19,GCGCTCTTTTGGGCCAGAGGCCTATTCCCACTTGACTTCCCGGAGTCACCTAGTGCAG,8430 fluorescence intensity (a.u.)
20,GACCACCTCGGCCACCACTCTGCCCGCGGCCCTCACCCAGCGGAGTCACCTAGTGCAG,8410 fluorescence intensity (a.u.)
21,CCATTCACCTCTCCGCACGCACCCACCCACCCACCAACCGCGGAGTCACCTAGTGCAG,10300 fluorescence intensity (a.u.)
22,CCGTCCGATTTTTCTGCACGCGATCCTGACCGTGTCCAGACGGAGTCACCTAGTGCAG,8190 fluorescence intensity (a.u.)
23,GGTCCAGTTGCACCTCTTCGCATTCAGCTTCCTCTACAGCCGGAGTCACCTAGTGCAG,8180 fluorescence intensity (a.u.)
24,GGTCTCCACCTCCTCCGCCTTCACCACCCCGTCGTCGTCACGGAGTCACCTAGTGCAG,8260 fluorescence intensity (a.u.)
25,TTAAATCCACCATTAAATATTTTTATATTATATCTTTTGTCGGAGTCACCTAGTGCAG,8140 fluorescence intensity (a.u.)
26,GTATTTTAGAATGTTGCACGTGGTGTGTTTTTTGGGATGTCGGAGTCACCTAGTGCAG,9640 fluorescence intensity (a.u.)
27,CTGGTCCCATGGATTGCCTATAGCTGATTAATTGATTATACGGAGTCACCTAGTGCAG,9560 fluorescence intensity (a.u.)

row,Sequence,binding signal
1,AGAGAGACGCAATTGACAGCATTTTGTAAGCATTTGAAGCCGGAGTCACCTAGTGCAG,8290 fluorescence intensity (a.u.)
2,TTTTTCAACCTCCGTTTATATACAACGCACGATCACATATCGGAGTCACCTAGTGCAG,8560 fluorescence intensity (a.u.)
3,TATTTTTAATTCCGAATTTCAGTTATTTCCTAATTGTATTCGGAGTCACCTAGTGCAG,9240 fluorescence intensity (a.u.)
4,TGGCTTCCTGCTGACATAACCCAAAGCTTTCACTGTCCTTCGGAGTCACCTAGTGCAG,8250 fluorescence intensity (a.u.)
5,CCCTGGCGCGCCCAATCCCACACTCATATATACACACTTCCGGAGTCACCTAGTGCAG,10100 fluorescence intensity (a.u.)
6,CCCAGGTGTGCGCGGCTCTCTTCTCCTCCATCGGCGACGACGGAGTCACCTAGTGCAG,8720 fluorescence intensity (a.u.)
7,CCATTTCTTTTTATGTTTTCTGAATAATTTTTCTTCTTCTCGGAGTCACCTAGTGCAG,9030 fluorescence intensity (a.u.)
8,CGGTTCGGTTCTTCGGTTCGGTCTTATTTTGCCCACCCCTCGGAGTCACCTAGTGCAG,9320 fluorescence intensity (a.u.)
9,GTGGGGAAAGATAAGTGTGTGTGGGTGTGGCAATAAAGGTCGGAGTCACCTAGTGCAG,8920 fluorescence intensity (a.u.)
10,TTCCGCCTTCTGGCGAGGTTGTGCGGTGGGGATGGGCCGGCGGAGTCACCTAGTGCAG,10500 fluorescence intensity (a.u.)
11,GCCCCTGTTGACTGTTGTTCACATCTCTTTCAGATATTTTCGGAGTCACCTAGTGCAG,11700 fluorescence intensity (a.u.)
12,TGAATTTAAGGAGGTTACCACGGTATTTACGTTACCGTTCCGGAGTCACCTAGTGCAG,8540 fluorescence intensity (a.u.)
13,GAAATGAGGGGTGGGATTGGGATTGGGATTGGAAAATGAACGGAGTCACCTAGTGCAG,11800 fluorescence intensity (a.u.)
14,CTATTGTTTGCAAGAATTTTGAGTTTTTTTTCCTGATTTCCGGAGTCACCTAGTGCAG,10500 fluorescence intensity (a.u.)
15,GCCCGCATTTTGCCATTCATCCTCCACCTCTCGCCGCCAACGGAGTCACCTAGTGCAG,8460 fluorescence intensity (a.u.)
16,GGTCTTCCTACTTCTTACCTGCGTCTTGCTGCACATCGTCCGGAGTCACCTAGTGCAG,9580 fluorescence intensity (a.u.)
17,CTGCGTTTGTGCGGGTGCGGGTGCGGGTGCTAGACTGCTACGGAGTCACCTAGTGCAG,8770 fluorescence intensity (a.u.)
18,AAAAAGACAAACCCTGGTTTCCGTGCGCAATGTTTGACCGCGGAGTCACCTAGTGCAG,8640 fluorescence intensity (a.u.)
19,AGCACTTATTTAGTTCAGGCAATACTATAATTTTCTTTATCGGAGTCACCTAGTGCAG,8630 fluorescence intensity (a.u.)
20,GAATTATTATTTATTTTGTTTATCATTTGCTTTATTATCACGGAGTCACCTAGTGCAG,9240 fluorescence intensity (a.u.)
21,GCTTTTGGCTGTGGTGGGTGCTTGTGGGTGGAGAGAGAGACGGAGTCACCTAGTGCAG,19300 fluorescence intensity (a.u.)
22,TTTTTTATATTTGTAACTGTTGTCTCTGTTTTCAGGAATTCGGAGTCACCTAGTGCAG,8890 fluorescence intensity (a.u.)
23,ATCAACTTTTAGTCTCATGTGCTATCCCCTTTTATTATTACGGAGTCACCTAGTGCAG,8300 fluorescence intensity (a.u.)
24,ATCCCAACCGAATCTAGTTCCTTGCTACAACTGACCAAACCGGAGTCACCTAGTGCAG,8340 fluorescence intensity (a.u.)
25,CTGTACTCGCGCCTGCCGCCGCCCGCGTCGTCCGCCATCGCGGAGTCACCTAGTGCAG,8280 fluorescence intensity (a.u.)
26,AGAGCTTAATTTGGTATGTGTGTGTATATATATATATATACGGAGTCACCTAGTGCAG,8150 fluorescence intensity (a.u.)
27,GACGGCCACCTAGACCCCATTCTACAGCTCCATCTTCACCCGGAGTCACCTAGTGCAG,12200 fluorescence intensity (a.u.)

# A different layout for part of the listing above:
row	Sequence	binding signal
25	CTGTACTCGCGCCTGCCGCCGCCCGCGTCGTCCGCCATCGCGGAGTCACCTAGTGCAG	8280 fluorescence intensity (a.u.)
26	AGAGCTTAATTTGGTATGTGTGTGTATATATATATATATACGGAGTCACCTAGTGCAG	8150 fluorescence intensity (a.u.)
27	GACGGCCACCTAGACCCCATTCTACAGCTCCATCTTCACCCGGAGTCACCTAGTGCAG	12200 fluorescence intensity (a.u.)
